# PubChem BioAssay AID445 (National Center for Advancing Translational Sciences (NCATS), 2006)
# Some of the results follow. These are further read-outs of the screen, such as a control signal, another cell line or another target. No call is given for them. The list favours compounds with an active or inconclusive main result. Words in brackets tell the shape of the fitted curve; partial curves, single points and poor fits give uncertain potencies.
# Assay: IkB Signaling
# Conditions: ABC-DLBCL IkBa-CBG/CBR dual luciferase ratio (green luciferase fused to IkBa over red control in OCI-Ly3 lymphoma cells), 4 h; measured here: control luc red channel unless noted
# Procedure, shortened: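 In this assay, an IκBα–CBG68 fusion accumulates when IKK-driven degradation is blocked; native CBR normalizes for cell number. OCI-Ly3 cells were treated 4 h with compound and doxycycline, then green and red light read after Chroma-Glo addition.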
row,SMILES,AC50
1,Cc1ccccc1C(=O)Nc1cccc(C(=O)OCc2cc(=O)n3c4c(sc3n2)CCCC4)c1,"2.51 µM [falling, full curve]"
2,Cc1ccc(NC(=O)N(Cc2cn(C)c3ccccc23)C2CCCCC2)cc1C,"7.94 µM [falling, partial curve]"
3,CCC1CCCCN1CC(=O)N1CCCc2c1c(=O)oc1ccc(OCc3ccccc3)cc21 (stereo not given),"20 µM [falling, partial curve]"
4,CCN1CCN(c2ccc(NS(=O)(=O)c3c(C)nc4sccn4c3=O)cc2Cl)CC1,"15.8 µM [falling, partial curve]"
5,COc1ccc(C(=O)CC2(O)C(=O)N(Cc3ccccc3Cl)c3ccccc32)cc1 (stereo not given),"25.1 µM [falling, single point]"
6,O=C(CCCCCn1c(SCc2ccncc2)nc2ccccc2c1=O)NCc1ccco1,"12.6 µM [falling, partial curve]"
7,CC(C)c1ccc(CNc2nc(-c3ccco3)nn2S(=O)(=O)c2ccc3ccccc3c2)cc1,"10 µM [falling, partial curve]"
8,O=C(CSc1nc(-c2ccccc2)cs1)NC(=O)NCc1ccco1,"7.94 µM [falling, partial curve]"
9,CCCS(=O)(=O)c1ncc(Cl)c(C(=O)Nc2scc(-c3ccccc3)c2C(=O)OCC)n1,"7.94 µM [falling, full curve]"
10,O=S(=O)(c1ccccc1)c1nc(-c2ccc(Cl)cc2Cl)oc1N1CCCCCC1,"39.8 µM [falling, single point]"
11,O=C1CC(c2nc3ccccc3n2Cc2c(F)cccc2Cl)CN1c1cccc(C(F)(F)F)c1 (stereo not given),"12.6 µM [falling, partial curve]"
12,COc1ccc(NC(=O)CC2C(=O)N(c3ccc(C)cc3)C(=O)N2CCc2ccccc2)cc1 (stereo not given),"20 µM [falling, partial curve]"
13,COC(=O)c1c(NC(=O)CCCOc2ccc(C)cc2)sc2c1C(C(=O)OC)CC2 (stereo not given),"6.31 µM [rising, single point]"
14,Cc1nc2ccn(Cc3ccco3)c(=O)c2cc1C(=O)N1CCN(c2ccccc2F)CC1,"31.6 µM [falling, single point]"
15,CCOC(=O)C1CCCN(CC(=O)Nc2c(C(=O)OC)[nH]c3ccc(Br)cc23)C1 (stereo not given),"31.6 µM [falling, single point]"
16,COc1cccc(OCc2nc3ccccc3n2CCOc2ccccc2)c1,"20 µM [falling, partial curve]"
17,Cc1ccc(S(=O)(=O)N2CCCC(c3nc4c(nnn4Cc4ccc(OC(F)(F)F)cc4)c(=O)[nH]3)C2)cc1 (stereo not given),"3.16 µM [rising, full curve, poor fit]"
18,O=C(Cn1c(=O)nc(-c2ccccc2)c2cc(Cl)ccc21)NCc1ccccc1,"31.6 µM [falling, partial curve, poor fit]"
19,Cn1nc(-c2ccc(OCC(=O)Nc3ccccc3)cc2)c2ccccc2c1=O,"31.6 µM [falling, partial curve]"
20,COc1cc(OC)cc(C(=O)Nc2ccc(S(=O)(=O)Nc3cc(C)nc(C)n3)cc2)c1,"10 µM [falling, partial curve]"

# Given with tabs: entries from further up
row	SMILES	AC50
4	CCN1CCN(c2ccc(NS(=O)(=O)c3c(C)nc4sccn4c3=O)cc2Cl)CC1	15.8 µM [falling, partial curve]
10	O=S(=O)(c1ccccc1)c1nc(-c2ccc(Cl)cc2Cl)oc1N1CCCCCC1	39.8 µM [falling, single point]

# (more compounds)

row,SMILES,AC50
1,CCCCn1c(COc2cccc(OC)c2)nc2ccccc21,"20 µM [falling, single point]"
2,COc1ccc(CCN2CC(C(=O)NCCc3ccc(C)cc3)CC2=O)cc1OC (stereo not given),"0.0126 µM [falling, full curve, poor fit]"
3,CC(C)(CC(=O)OCC(=O)Nc1ccc(F)c(Cl)c1)CC1=NS(=O)(=O)c2ccccc2N1,"15.8 µM [falling, partial curve]"
4,Cc1cc(C)nc(SCC(=O)N2CCOCC2)n1,"31.6 µM [rising, partial curve]"
5,Cc1ccccc1NC(=O)c1sc2nc(-c3ccncc3)ccc2c1N,"15.8 µM [falling, partial curve]"
6,CC(=O)Cc1nsc(NC(=O)c2ccc(-c3ccccc3Cl)o2)n1,"5.01 µM [falling, partial curve]"
7,CC(=O)Oc1c(C)cc(O)c2ccccc12,"12.6 µM [falling, partial curve]"
8,CCOC(=O)c1ccc(N2C(=O)c3n[nH]c(-c4cccs4)c3C2c2ccc(C)cc2)cc1 (stereo not given),"20 µM [falling, partial curve, poor fit]"
9,COC(=O)c1ccc(CSc2nc3scc(-c4cccs4)c3c(=O)[nH]2)o1,"15.8 µM [falling, partial curve]"
10,CCCN(CCC)CCCNC(=O)Cn1ncc2c3ccccc3n(Cc3ccc(F)cc3)c2c1=O,"12.6 µM [falling, single point]"
11,CCCCOc1cccc(C(=O)Nc2cc3nn(-c4ccc(F)cc4)nc3cc2C)c1,"1 µM [rising, full curve, poor fit]"
12,Clc1cccc(-c2cc3nc4c(c(N5CCOCC5)n3n2)CCCC4)c1,"20 µM [falling, partial curve]"
13,Cc1cc2ccccc2n1-c1ccc(C(=O)N2CCCCC2)s1,"31.6 µM [falling, partial curve]"
14,O=C(CSc1nc2ccccc2o1)Nc1nc2c(s1)CCCC2,"20 µM [falling, partial curve]"
15,CC(C)Oc1ccc(CNC(=O)c2ccc(NC(=O)c3nsc4ccccc34)cc2)cc1,"0.316 µM [falling, full curve]"
16,CC1CCCN(C(=O)c2ccc3c(c2)C(=O)N(CCC2=CCCCC2)C3=O)C1 (stereo not given),"20 µM [falling, partial curve]"
17,CCN(CCCNC(=O)c1cc2cc3cc(C)ccc3nc2s1)c1cccc(C)c1,"15.8 µM [falling, partial curve, poor fit]"
18,COc1ccc(/C=C(/C#N)c2nc(-c3ccc(-c4ccccc4)cc3)cs2)cc1,"0.398 µM [falling, full curve]"
19,Cc1nc(-c2ccccc2)sc1CCNC(=O)c1ccco1,"5.01 µM [rising, full curve, poor fit]"
20,COC(=O)c1ccc(CN(c2ccccc2OC)S(=O)(=O)c2cccs2)o1,"15.8 µM [falling, partial curve]"
